## Assay results

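Malaria parasite (P. falciparum) lines kept in red blood cells; parasite DNA is measured by SYBR Green fluorescence after lysis, 72 h after compound addition. Each compound was titrated across a series from about 0.000037 to 29 µM. The number is the fitted AC50, the concentration giving a half-maximal change in signal; a lower value means higher potency, whether the curve shows a decrease or an increase. Calls follow the curve class and fit quality: every row here is inconclusive, covering signal-raising curves and weak, poorly fitted, partial or highest-dose-only inhibition curves.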

Values are in µM. Every entry below has the call inconclusive. These entries are mostly ones the record files as inconclusive; other results of the assay are not listed here. A potency from a partial, single-point or poor curve is only a rough figure.

Compound	condition	Potency (µM)	curve
Clc1ccc(COC(Cn2ccnc2)c2ccc(Cl)cc2Cl)c(Cl)c1 (centres undefined)	CP266	6.424	inhibitor, single point
Clc1ccc(COC(Cn2ccnc2)c2ccc(Cl)cc2Cl)c(Cl)c1 (centres undefined)	CP305	8.087	inhibitor, single point
Clc1ccc(COC(Cn2ccnc2)c2ccc(Cl)cc2Cl)c(Cl)c1 (centres undefined)	Dd2	3.548	inhibitor, single point
Clc1ccc(COC(Cn2ccnc2)c2ccc(Cl)cc2Cl)c(Cl)c1 (centres undefined)	CP194	5.726	inhibitor, single point
Clc1ccc(COC(Cn2ccnc2)c2ccc(Cl)cc2Cl)c(Cl)c1 (centres undefined)	CP211	8.087	inhibitor, single point
Clc1ccc(COC(Cn2ccnc2)c2ccc(Cl)cc2Cl)c(Cl)c1 (centres undefined)	CP265	3.981	inhibitor, single point
Clc1ccc(COC(Cn2ccnc2)c2ccc(Cl)cc2Cl)c(Cl)c1 (centres undefined)	CP201	5.726	inhibitor, partial curve
Clc1ccc(COC(Cn2ccnc2)c2ccc(Cl)cc2Cl)c(Cl)c1 (centres undefined)	CP262	5.103	inhibitor, single point
Clc1ccc(COC(Cn2ccnc2)c2ccc(Cl)cc2Cl)c(Cl)c1 (centres undefined)	CP329	5.103	inhibitor, single point
Clc1ccc(COC(Cn2ccnc2)c2ccc(Cl)cc2Cl)c(Cl)c1 (centres undefined)	CP286	7.08	inhibitor, single point
Clc1ccc(COC(Cn2ccnc2)c2ccc(Cl)cc2Cl)c(Cl)c1 (centres undefined)	CP247	5.012	inhibitor, single point
Clc1ccc(COC(Cn2ccnc2)c2ccc(Cl)cc2Cl)c(Cl)c1 (centres undefined)	CP252	7.08	inhibitor, single point
Clc1ccc(COC(Cn2ccnc2)c2ccc(Cl)cc2Cl)c(Cl)c1 (centres undefined)	CP269	7.208	inhibitor, single point
Clc1ccc(COC(Cn2ccnc2)c2ccc(Cl)cc2Cl)c(Cl)c1 (centres undefined)	CP238	7.08	inhibitor, single point
Clc1ccc(COC(Cn2ccnc2)c2ccc(Cl)cc2Cl)c(Cl)c1 (centres undefined)	CP191	7.08	inhibitor, single point
Clc1ccc(COC(Cn2ccnc2)c2ccc(Cl)cc2Cl)c(Cl)c1 (centres undefined)	CP250	5.012	inhibitor, single point
Cc1c(C)c2c(c(C)c1O)CCC(C)(COc1ccc(CC3SC(=O)NC3=O)cc1)O2 (centres undefined)	P93_24	12.59	inhibitor, single point
Cc1c(C)c2c(c(C)c1O)CCC(C)(COc1ccc(CC3SC(=O)NC3=O)cc1)O2 (centres undefined)	PAD	10	inhibitor, single point
Cc1c(C)c2c(c(C)c1O)CCC(C)(COc1ccc(CC3SC(=O)NC3=O)cc1)O2 (centres undefined)	PC26	12	inhibitor, single point
Cc1c(C)c2c(c(C)c1O)CCC(C)(COc1ccc(CC3SC(=O)NC3=O)cc1)O2 (centres undefined)	CP247	11.22	inhibitor, single point
Cc1c(C)c2c(c(C)c1O)CCC(C)(COc1ccc(CC3SC(=O)NC3=O)cc1)O2 (centres undefined)	CP211	10.69	inhibitor, single point
Cc1c(C)c2c(c(C)c1O)CCC(C)(COc1ccc(CC3SC(=O)NC3=O)cc1)O2 (centres undefined)	CP237	11.22	inhibitor, single point
Cc1c(C)c2c(c(C)c1O)CCC(C)(COc1ccc(CC3SC(=O)NC3=O)cc1)O2 (centres undefined)	DIV30	15.1	inhibitor, single point
Cc1c(C)c2c(c(C)c1O)CCC(C)(COc1ccc(CC3SC(=O)NC3=O)cc1)O2 (centres undefined)	CP217	11.22	inhibitor, single point
Cc1c(C)c2c(c(C)c1O)CCC(C)(COc1ccc(CC3SC(=O)NC3=O)cc1)O2 (centres undefined)	AS120	10	inhibitor, single point
Cc1c(C)c2c(c(C)c1O)CCC(C)(COc1ccc(CC3SC(=O)NC3=O)cc1)O2 (centres undefined)	CP191	12.59	inhibitor, single point
Cc1c(C)c2c(c(C)c1O)CCC(C)(COc1ccc(CC3SC(=O)NC3=O)cc1)O2 (centres undefined)	CP215	6.012	inhibitor, partial curve
Cc1c(C)c2c(c(C)c1O)CCC(C)(COc1ccc(CC3SC(=O)NC3=O)cc1)O2 (centres undefined)	ICS	11.22	inhibitor, single point
Cc1c(C)c2c(c(C)c1O)CCC(C)(COc1ccc(CC3SC(=O)NC3=O)cc1)O2 (centres undefined)	CP203	13.46	inhibitor, partial curve
Cc1c(C)c2c(c(C)c1O)CCC(C)(COc1ccc(CC3SC(=O)NC3=O)cc1)O2 (centres undefined)	parasite line B	11.22	inhibitor, single point
Cc1c(C)c2c(c(C)c1O)CCC(C)(COc1ccc(CC3SC(=O)NC3=O)cc1)O2 (centres undefined)	CP265	10	inhibitor, single point

4 of the entries, repeated:

{"compound": "Clc1ccc(COC(Cn2ccnc2)c2ccc(Cl)cc2Cl)c(Cl)c1", "stereo": "centres undefined", "condition": "CP247", "Potency (µM)": "5.012", "curve": "inhibitor, single point"}
{"compound": "Cc1c(C)c2c(c(C)c1O)CCC(C)(COc1ccc(CC3SC(=O)NC3=O)cc1)O2", "stereo": "centres undefined", "condition": "PC26", "Potency (µM)": "12", "curve": "inhibitor, single point"}
{"compound": "Clc1ccc(COC(Cn2ccnc2)c2ccc(Cl)cc2Cl)c(Cl)c1", "stereo": "centres undefined", "condition": "CP191", "Potency (µM)": "7.08", "curve": "inhibitor, single point"}
{"compound": "Clc1ccc(COC(Cn2ccnc2)c2ccc(Cl)cc2Cl)c(Cl)c1", "stereo": "centres undefined", "condition": "Dd2", "Potency (µM)": "3.548", "curve": "inhibitor, single point"}

From PubChem BioAssay record AID504749 (NCATS, 2011).